Test results taken from PMC4351203.
Changes are numbered by the printed parent chain. Where two headings read alike, the source gives them in different places. Results are given in words; binding and its absence hold for the method and conditions named. Binding seen in cells or lysates may run through a third protein. Some binding calls cover weakened binding; strength is not graded here. For some of these results: Where a sequence is shown, tags or fusion partners need not be part of it. Each block holds one molecule with its values, some of them ahead of it.

Chains of the proteins cited; added tags and fusions are not shown.
UniProt Q8VI36: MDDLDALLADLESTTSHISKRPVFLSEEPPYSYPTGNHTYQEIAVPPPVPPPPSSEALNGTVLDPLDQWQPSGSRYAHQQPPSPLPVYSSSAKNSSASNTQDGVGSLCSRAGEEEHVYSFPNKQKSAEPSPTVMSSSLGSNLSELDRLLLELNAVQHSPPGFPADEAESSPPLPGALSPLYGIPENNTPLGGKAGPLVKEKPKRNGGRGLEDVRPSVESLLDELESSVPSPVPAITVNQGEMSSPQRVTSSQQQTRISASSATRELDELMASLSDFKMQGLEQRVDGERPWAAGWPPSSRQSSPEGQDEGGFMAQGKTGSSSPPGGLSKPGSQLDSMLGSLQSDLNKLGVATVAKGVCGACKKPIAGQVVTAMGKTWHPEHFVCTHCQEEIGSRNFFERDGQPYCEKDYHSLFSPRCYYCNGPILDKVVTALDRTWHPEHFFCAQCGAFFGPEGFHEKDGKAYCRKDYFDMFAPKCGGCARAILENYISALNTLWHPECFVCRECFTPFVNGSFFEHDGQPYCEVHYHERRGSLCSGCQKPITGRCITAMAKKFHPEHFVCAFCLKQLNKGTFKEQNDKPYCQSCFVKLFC
UniProt Q62219: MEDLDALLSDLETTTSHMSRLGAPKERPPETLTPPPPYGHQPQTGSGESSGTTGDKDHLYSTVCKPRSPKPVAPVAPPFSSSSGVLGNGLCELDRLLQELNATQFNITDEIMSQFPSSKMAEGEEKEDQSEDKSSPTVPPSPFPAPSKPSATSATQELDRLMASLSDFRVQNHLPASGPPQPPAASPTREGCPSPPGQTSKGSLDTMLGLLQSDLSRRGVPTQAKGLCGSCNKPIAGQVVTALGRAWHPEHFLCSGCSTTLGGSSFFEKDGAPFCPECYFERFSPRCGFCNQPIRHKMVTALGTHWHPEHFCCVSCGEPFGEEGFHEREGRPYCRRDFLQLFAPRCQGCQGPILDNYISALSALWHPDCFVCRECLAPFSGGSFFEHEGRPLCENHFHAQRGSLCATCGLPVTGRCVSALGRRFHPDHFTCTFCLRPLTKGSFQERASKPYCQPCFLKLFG
UniProt P49023: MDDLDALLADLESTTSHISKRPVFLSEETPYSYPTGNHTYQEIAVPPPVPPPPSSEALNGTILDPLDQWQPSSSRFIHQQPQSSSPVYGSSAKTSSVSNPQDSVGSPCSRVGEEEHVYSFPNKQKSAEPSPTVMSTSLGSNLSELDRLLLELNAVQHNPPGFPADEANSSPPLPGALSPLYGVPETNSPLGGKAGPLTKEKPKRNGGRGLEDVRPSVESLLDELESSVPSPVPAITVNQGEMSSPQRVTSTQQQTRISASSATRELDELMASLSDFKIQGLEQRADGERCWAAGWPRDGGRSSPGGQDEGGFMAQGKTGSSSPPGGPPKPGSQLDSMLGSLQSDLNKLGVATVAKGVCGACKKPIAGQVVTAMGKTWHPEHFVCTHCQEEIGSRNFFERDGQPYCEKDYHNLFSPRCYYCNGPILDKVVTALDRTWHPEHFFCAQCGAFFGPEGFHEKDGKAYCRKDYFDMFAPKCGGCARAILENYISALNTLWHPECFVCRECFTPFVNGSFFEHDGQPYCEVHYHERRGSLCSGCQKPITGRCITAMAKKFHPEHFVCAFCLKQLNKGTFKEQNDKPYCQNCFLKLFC
UniProt O43294: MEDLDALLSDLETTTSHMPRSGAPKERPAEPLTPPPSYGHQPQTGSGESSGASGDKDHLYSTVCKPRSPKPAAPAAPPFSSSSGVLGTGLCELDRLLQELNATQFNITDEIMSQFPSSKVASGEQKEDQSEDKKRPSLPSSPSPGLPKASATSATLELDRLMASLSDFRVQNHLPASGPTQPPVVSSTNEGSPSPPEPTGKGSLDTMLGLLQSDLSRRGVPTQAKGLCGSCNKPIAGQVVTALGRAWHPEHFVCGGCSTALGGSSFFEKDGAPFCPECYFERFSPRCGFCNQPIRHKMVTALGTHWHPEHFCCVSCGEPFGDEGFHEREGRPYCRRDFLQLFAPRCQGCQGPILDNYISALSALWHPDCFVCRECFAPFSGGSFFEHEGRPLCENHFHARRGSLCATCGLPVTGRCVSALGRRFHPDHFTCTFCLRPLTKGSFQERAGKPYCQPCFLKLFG

Experiments:
[1] = target: T1, FLAG-tagged Git1 (WT) (rat) (UniProt Q9Z272); assay: co-IP; extracts of HEK293T cells co-expressing FLAG-tagged Git1 proteins with a Myc-tagged partner or YFP-fused Git1; cells treated with 100 μM pervanadate or vehicle for 15 min; anti-FLAG beads; eluted by boiling in SDS sample buffer; Western blot with anti-Myc or anti-GFP
T1 sequence: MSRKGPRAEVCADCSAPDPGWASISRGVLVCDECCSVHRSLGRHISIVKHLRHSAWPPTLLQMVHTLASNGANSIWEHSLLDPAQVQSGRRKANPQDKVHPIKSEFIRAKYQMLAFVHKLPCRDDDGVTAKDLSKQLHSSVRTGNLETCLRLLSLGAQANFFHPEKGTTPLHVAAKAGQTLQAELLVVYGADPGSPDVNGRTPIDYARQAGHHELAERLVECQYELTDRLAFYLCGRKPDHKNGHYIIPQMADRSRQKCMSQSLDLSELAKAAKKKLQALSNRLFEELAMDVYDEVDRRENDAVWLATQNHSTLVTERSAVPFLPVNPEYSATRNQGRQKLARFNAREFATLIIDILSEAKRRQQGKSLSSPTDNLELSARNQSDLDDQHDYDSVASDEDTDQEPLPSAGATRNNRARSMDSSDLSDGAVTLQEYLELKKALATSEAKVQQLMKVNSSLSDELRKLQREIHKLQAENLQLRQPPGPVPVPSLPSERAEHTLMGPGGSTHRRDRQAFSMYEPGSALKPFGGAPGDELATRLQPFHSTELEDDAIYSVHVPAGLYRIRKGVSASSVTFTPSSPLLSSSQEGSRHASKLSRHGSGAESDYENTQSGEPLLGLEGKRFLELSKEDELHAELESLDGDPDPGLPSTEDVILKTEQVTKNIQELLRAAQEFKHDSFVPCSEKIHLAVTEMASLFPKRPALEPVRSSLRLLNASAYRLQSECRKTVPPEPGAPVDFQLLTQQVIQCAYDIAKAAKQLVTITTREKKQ

[2] = target: T2, FLAG-tagged Git1-Y554D (rat) (UniProt Q9Z272); assay: as above
T2 sequence: T1 sequence with Y554D

[3] = target: T3, FLAG-tagged Git1-Y554F (rat) (UniProt Q9Z272); assay: as above
T3 sequence: T1 sequence with Y554F

[4] = target: T3, FLAG-tagged Git1-Y554F (rat); assay: co-IP; extracts of HEK293T cells expressing FLAG-tagged Git1 constructs, treated with 100 μM pervanadate for 15 min; lysis buffer 20 mM Tris-HCl pH 7.4, 1% NP-40, 150 mM NaCl, 10 mM NaF, 1 mM orthovanadate; anti-FLAG M2 magnetic beads 3 h; eluted with FLAG peptides; Western blot of endogenous Hic-5 or paxillin
[5] = target: T1, FLAG-tagged Git1 (WT) (rat); assay: co-IP; extracts of HEK293T cells co-expressing FLAG-tagged Git1 proteins with a Myc-tagged partner or YFP-fused Git1; cells treated with 100 μM pervanadate or vehicle for 15 min; anti-FLAG beads; eluted by boiling in SDS sample buffer; Western blot with anti-Myc or anti-GFP; remark: listed apart in the source
[6] = target: paxillin (endogenous, mouse cerebral cortex synaptosomes) (mouse (endogenous in cerebral cortex)) (UniProt Q8VI36); assay: co-IP; synaptosome extracts of the cerebral cortex of wild-type and Ptprz-deficient mice, precleared with protein G Sepharose; mouse monoclonal anti-paxillin-coated beads, 4°C; Western blot with rabbit anti-Git1

Molecule: Myc-tagged Hic-5 (from UniProt Q62219 1-461)
binding [1]: binds | binding [2]: binds | binding [3]: binds

Molecule: paxillin (endogenous, HEK293T) (from UniProt P49023 1-591)
binding [4]: binds

The next lines start with the values.

binding [4]: binds
Molecule: Hic-5 (endogenous, HEK293T) (from UniProt O43294 1-461)

binding [5]: binds
B1: Myc-tagged βPix (protein, UniProt Q9ES28-5 1-782)
chain: MNSAEQTVTWLITLGVLESPKKTISDPEVFLQASLKDGVVLCRLLERLLPGTIEKVYPEPRNESECLSNIREFLRACGASLRLETFDANDLYQGQNFNKVLSSLVTLNKVTADIGLGSDSVCARPSSHRIKSFDSLGSQSSHSRTSKLLQSQYRSLDMTDNTNSQLVVRAKFNFQQTNEDELSFSKGDVIHVTRVEEGGWWEGTHNGRTGWFPSNYVREIKPSEKPVSPKSGTLKSPPKGFDTTAINKSYYNVVLQNILETEHEYSKELQSVLSTYLRPLQTSDKLSSANTSYLMGNLEEISSFQQVLVQSLEECTKSPEAQQRVGGCFLSLMPQMRTLYLAYCANHPSAVSVLTEHSEDLGEFMETKGASSPGILVLTTGLSKPFMRLDKYPTLLKELERHMEDYHPDRQDIQKSMTAFKNLSAQCQEVRKRKELELQILTEPIRSWEGDDIKTLGSVTYMSQVTIQCAGSEEKNERYLLLFPNLLLMLSASPRMSGFIYQGKLPTTGMTITKLEDSENHRNAFEISGSMIERILVSCTSQQDLHEWVEHLQKQTKVTSVSNPTIKPHSVPSHTLPSHPLTPSSKHADSKPVALTPAYHTLPHPSHHGTPHTTISWGPLEPPKTPKPWSLSCLRPAPPLRPSAALCYKEDLSKSPKTMKKLLPKRKPERKPSDEEFAVRKSTAALEEDAQILKVIEAYCTSAKTRQTLNSTWQGTDLMHNHVLADDDQSSLDSLGRRSSLSRLEPSDLSEDSEYDSIWTAHSYRMGSASRKSCCSYISHQN

binding [6]: binds
B2: Git1 (endogenous, mouse cerebral cortex synaptosomes) (protein, UniProt Q68FF6 1-770)
chain: MSRKGPRAEVCADCSAPDPGWASISRGVLVCDECCSVHRSLGRHISIVKHLRHSAWPPTLLQMVHTLASNGANSIWEHSLLDPAQVQSGRRKANPQDKVHPIKSEFIRAKYQMLAFVHKLPCRDDDGVTAKDLSKQLHSSVRTGNLETCLRLLSLGAQANFFHPEKGTTPLHVAAKAGQTLQAELLVVYGADPGSPDVNGRTPIDYARQAGHHELAERLVECQYELTDRLAFYLCGRKPDHKNGHYIIPQMADRSRQKCMSQSLDLSELAKAAKKKLQALSNRLFEELAMDVYDEVDRRENDAVWLATQNHSTLVTERSAVPFLPVNPEYSATRNQGRQKLARFNAREFATLIIDILSEAKRRQQGKSLSSPTDNLELSARSQSELDDQHDYDSVASDEDTDQEPLPSAGATRNNRARSMDSSDLSDGAVTLQEYLELKKALATSEAKVQQLMKVNSSLSDELRRLQREIHKLQAENLQLRQPPGPVPPPSLPSERAEHTLMGPGGSTHRRDRQAFSMYEPGSALKPFGGTPGDELATRLQPFHSTELEDDAIYSVHVPAGLYRIRKGVSASSVPFTPSSPLLSCSQEGSRHASKLSRHGSGADSDYENTQSGDPLLGLEGKRFLELSKEDELHPELESLDGDLDPGLPSTEDVILKTEQVTKNIQELLRAAQEFKHDSFVPCSEKIHLAVTEMASLFPKRPALEPVRSSLRLLNASAYRLQSECRKTVPPEPGAPVDFQLLTQQVIQCAYDIAKAAKQLVTITTREKKQ
